Like-named read-outs stand apart in the source and are kept apart here. Not every detail of the peptide structures is certain; ends, links or a residue may be inferred. Where no end group is shown, it is not given here.
Legend:
[1] = tested on: alcoholic or methadone- or heroin-dependent patients
morphine-dependent mouse = experiment: Inhibition of the naloxone-triggered withdrawal leaps of the morphine-dependent mouse; format: in vivo; conditions: 2 hours before naloxone; for Leaps/animal (median): leaps counted for 20 minutes
Protocol: In order to produce the dependence a compressed tablet, which contained 75 mg of morphine (base) and which progressively dissolved with continuous liberation of the morphine, was implanted under the dorsal skin of male mice (weight about 22 g). On the third day after the implantation the morphine antagonist naloxone in a dosage of 0.1 mg/kg was administered subcutaneously to the animals in order to trigger off the withdrawal leaps.
After the injection, the leaps of each individual animal were counted for 20 minutes. The group median value was calculated from the total leaps of 8 animals, which formed a group. As the positive control the animals of one group received 30 mg/kg of morphine subcutaneously 30 minutes before administration of the antagonist. Two to four groups received 10 ml/kg of physiological sodium chloride solution (negative control) 2 hours before the naloxone administration intravenously. The remaining groups received DSIP in various dosages (0.01, 0.015, 0.03, 0.06 and 0.1 mg/kg, intravenously and 0.03, 0.1 and 0.3 mg/kg, subcutaneously) 2 hours before the naloxone administration. The dosage median values and, respectively, control median values were calculated from all individual values per dosage and, respectively, the positive and negative controls.

[2] = Abused drug: Alcohol with delirium tremens
[3] = 0.015 ml . kg^-1 i.v. (0.015 mg/kg i.v.)
[4] = 0.03 ml . kg^-1 i.v. (0.03 mg/kg i.v.)

Sequence: WAGGDASGE [DSIP, Trp--Ala--Gly--Gly--Asp--Ala--Ser--Gly--Glu]
- Effect of DSIP (1 mg per infusion): Not present, number of patients [1, 2]: 1 patients
- Effect of DSIP (1 mg per infusion): Present, number of patients [1, 2]: 6 patients
- Effect of DSIP (1 mg per infusion): Uncertain, number of patients [1, 2]: 1 patients
- Effect of DSIP (1 mg per infusion): Not present, number of patients ([1]; Abused drug: Alcohol without delirium tremens): 3 patients
- Effect of DSIP (1 mg per infusion): Present, number of patients ([1]; Abused drug: Alcohol without delirium tremens, up to 4 i.v. infusions daily): 14 patients
- Effect of DSIP (1 mg per infusion): Not present, number of patients ([1]; Abused drug: Heroin): 6 patients
- Effect of DSIP (1 mg per infusion): Present, number of patients ([1]; Abused drug: Heroin): 8 patients
- Effect of DSIP (1 mg per infusion): Uncertain, number of patients ([1]; Abused drug: Heroin): 2 patients
- Effect of DSIP (1 mg per infusion): Not present, number of patients ([1]; Abused drug: Methadone): 3 patients
- Effect of DSIP (1 mg per infusion): Present, number of patients ([1]; Abused drug: Methadone): 10 patients
- Effect of DSIP (1 mg per infusion): Uncertain, number of patients ([1]; Abused drug: Methadone): 2 patients
- Effect of DSIP (1 mg per infusion): Not present, number of patients ([1]; Total number of patients (56)): 13 patients
- Effect of DSIP (1 mg per infusion): Present, number of patients ([1]; Total number of patients (56)): 38 patients
- Effect of DSIP (1 mg per infusion): Uncertain, number of patients ([1]; Total number of patients (56)): 5 patients
- Cases in which DSIP was ineffective ([1]; of the 25 cases of alcohol dependence (with and without delirium tremens)): 4 cases
- % of a negative control (morphine-dependent mouse; 0.03 mg . kg^-1 s.c.): 103%
- Leaps/animal (median) (morphine-dependent mouse; 0.03 mg . kg^-1 s.c.): 165 Leaps/animal
- % of a negative control (morphine-dependent mouse; 0.1 mg . kg^-1 s.c.): 86%
- Leaps/animal (median) (morphine-dependent mouse; 0.1 mg . kg^-1 s.c.): 138 Leaps/animal
- % of a negative control (morphine-dependent mouse; 0.3 mg . kg^-1 s.c.): 54%
- Leaps/animal (median) (morphine-dependent mouse; 0.3 mg . kg^-1 s.c.): 86 Leaps/animal
- % of a negative control (morphine-dependent mouse; 0.01 ml . kg^-1 i.v.): 93%
- Leaps/animal (median) (morphine-dependent mouse; 0.01 ml . kg^-1 i.v.): 149 Leaps/animal
- % of a negative control (morphine-dependent mouse; [3]): 79%
- Leaps/animal (median) (morphine-dependent mouse; [3]): 126 Leaps/animal
- % of a negative control (morphine-dependent mouse; [4]): 66%
- Leaps/animal (median) (morphine-dependent mouse; [4]): 105 Leaps/animal
- % of a negative control (morphine-dependent mouse; 0.06 ml . kg^-1 i.v.): 93%
- Leaps/animal (median) (morphine-dependent mouse; 0.06 ml . kg^-1 i.v.): 148 Leaps/animal
- % of a negative control (morphine-dependent mouse; 0.1 ml . kg^-1 i.v.): 100%
- Leaps/animal (median) (morphine-dependent mouse; 0.1 ml . kg^-1 i.v.): 161 Leaps/animal
